From publication doi:10.1101/2022.06.14.496162
No constants are given. Whether binding was seen depends on the method and setting. Binding seen in cells or lysates may run through a third protein. Some binding calls cover weakened binding; strength is not graded here. Tags and fused reporters may be left off the sequences shown.

Biological target: T1, PARG-1::GFP (C. elegans) (UniProt Q867X0)
T1 sequence: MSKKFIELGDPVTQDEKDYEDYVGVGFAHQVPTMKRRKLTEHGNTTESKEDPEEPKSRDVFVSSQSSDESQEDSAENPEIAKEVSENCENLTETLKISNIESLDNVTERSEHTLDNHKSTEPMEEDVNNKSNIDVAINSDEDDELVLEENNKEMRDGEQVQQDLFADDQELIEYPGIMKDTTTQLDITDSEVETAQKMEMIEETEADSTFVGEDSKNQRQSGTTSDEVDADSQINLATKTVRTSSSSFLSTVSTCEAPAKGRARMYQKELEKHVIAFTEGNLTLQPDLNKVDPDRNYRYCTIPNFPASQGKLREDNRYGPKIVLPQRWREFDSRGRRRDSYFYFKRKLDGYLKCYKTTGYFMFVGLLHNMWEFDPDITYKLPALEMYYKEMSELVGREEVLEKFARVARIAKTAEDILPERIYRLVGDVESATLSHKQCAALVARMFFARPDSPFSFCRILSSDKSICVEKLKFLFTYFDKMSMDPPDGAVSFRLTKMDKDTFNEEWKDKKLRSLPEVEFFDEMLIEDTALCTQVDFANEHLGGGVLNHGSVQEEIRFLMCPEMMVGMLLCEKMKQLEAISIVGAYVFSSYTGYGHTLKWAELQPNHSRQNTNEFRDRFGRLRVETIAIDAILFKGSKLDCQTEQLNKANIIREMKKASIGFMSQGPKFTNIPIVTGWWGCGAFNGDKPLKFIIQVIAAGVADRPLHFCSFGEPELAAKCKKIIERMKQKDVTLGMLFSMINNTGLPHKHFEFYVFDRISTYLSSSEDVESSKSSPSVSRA
Assay: co-IP

B1: BRC-1::HA (protein, UniProt B6VQ60 1-609)
chain: MADVALRITETVARLQKELKCGICCSTYKDPILSTCFHIFCRSCINACFERKRKVQCPICRSVLDKRSCRDTYQITMAVQNYLKLSEAFKKDIENMNTFKSLPPEKMFMESQMPLDITIIPENDGKRCAPDFAIPFLPVRRKRPSRPQPPSAFAEEPAEPVEPPEPATKQPVELQSRVFPLEKLKKDVETSTETYKISREELKNVDIEEYINTLRENSTEIDEIDALFQLMPTMRQFLRNNINQLMEKFHVAPPKKSEKPANRRVSFASSQDLENIKIMTASESLETPPEPIQKLAQKPEVFKSTQNLIDLNLNTAVKKPVVVASDDDEVVEDSEGELQIDEDDLANVTCATSSTTLDADRTPKAIQDDEDRIDDELSQVPKTIVCSRIHNDADEVELLSDFYHKFLSNACRFAEDVNEHTTHLVMMNSEGRSISQKSTAYLYAIARKCVIVGRQWLVDCITTGLLLSEADYTITSCSSTIPVKIPPSIGSEMGWLRSRNDEHGKLFAGRRFMILRKFTMNPYFDYKQLIELVQQCGGEILSCYENLSPEKLYIIFSKHSKAIEESKNIENLYKCDVVTMEWVLDSISEYLILPTQPYKAVDSIGCLQD
With B1 the binding was “binds”.

B2: BRD-1::HA (protein, UniProt Q21209 1-702)
chain: MFENTKKALETFRTAIECVKCKKPRGDLQYLGSSCKHAYCWECIATFQQKPSGKRSSVARHMCPSCAFPLDTSKITEAHMLKTCFDTLSELNDLLQKVGTTSLTQAEFACTQNIFNKEKTPADAVEKFLETQAHMPDEMGQLGEEDDDLMCKDENRENSNSPELDIFHDYSKEASPTRNSTKRPSTVSVHERKPKRSSILKTSVKNEPAAPVVDLFASQVPQRTHQNDLLTPFIERRSTAPAATGVATYAQAFGSSSNPVKAEIIEEDIFSKAIPLTKRQASMSASAKKQPKLEPEEPEEVPSTSRSRKNSIKSDKIERRSQSPMSFGEKSMSVKSEQRRSSYGTRRGEAVLVNSIRNNRIPQLRSAVEAGTCVNEKEDGKTPLYVAVENSSLEAVKILVEAGAVINASCGSTLETTLHEAVRRQNTQIVEYLLSKGASIKIRNIAGKTVEEMAKSDPKIRKIIEKFKTEQRVLQPVVAPPKSRLHFVQLIDEKMLTESEKRKLPGKINIVPADMDSPTHVVVTVDLKTRVLNINKEHIGEILKAIIKSGMIVSRDWLRACIIDPSKVDDDRSYMVQKVRWMEGEVFENTIEQWKKTITKMQPKLFAGCKFFIPKPKYNFLDRPALFEIIRSAGGQAAAREPIIDEKDPPPYHNANLKPNFVLYSLTHDIGDKFRDCTKYNLVSEQWLIEAILGCSITTPPH
For B2, the binding was “binds”.
